Results are given in words; binding and its absence hold for the method and conditions named. In cells and extracts the contact can be indirect. Some binding calls cover weakened binding; strength is not graded here. Where a sequence is shown, tags or fusion partners need not be part of it.
T1: Histone deacetylase 7 (HDAC7) in NSCLC cells (UniProt Q8WUI4)
T1 sequence: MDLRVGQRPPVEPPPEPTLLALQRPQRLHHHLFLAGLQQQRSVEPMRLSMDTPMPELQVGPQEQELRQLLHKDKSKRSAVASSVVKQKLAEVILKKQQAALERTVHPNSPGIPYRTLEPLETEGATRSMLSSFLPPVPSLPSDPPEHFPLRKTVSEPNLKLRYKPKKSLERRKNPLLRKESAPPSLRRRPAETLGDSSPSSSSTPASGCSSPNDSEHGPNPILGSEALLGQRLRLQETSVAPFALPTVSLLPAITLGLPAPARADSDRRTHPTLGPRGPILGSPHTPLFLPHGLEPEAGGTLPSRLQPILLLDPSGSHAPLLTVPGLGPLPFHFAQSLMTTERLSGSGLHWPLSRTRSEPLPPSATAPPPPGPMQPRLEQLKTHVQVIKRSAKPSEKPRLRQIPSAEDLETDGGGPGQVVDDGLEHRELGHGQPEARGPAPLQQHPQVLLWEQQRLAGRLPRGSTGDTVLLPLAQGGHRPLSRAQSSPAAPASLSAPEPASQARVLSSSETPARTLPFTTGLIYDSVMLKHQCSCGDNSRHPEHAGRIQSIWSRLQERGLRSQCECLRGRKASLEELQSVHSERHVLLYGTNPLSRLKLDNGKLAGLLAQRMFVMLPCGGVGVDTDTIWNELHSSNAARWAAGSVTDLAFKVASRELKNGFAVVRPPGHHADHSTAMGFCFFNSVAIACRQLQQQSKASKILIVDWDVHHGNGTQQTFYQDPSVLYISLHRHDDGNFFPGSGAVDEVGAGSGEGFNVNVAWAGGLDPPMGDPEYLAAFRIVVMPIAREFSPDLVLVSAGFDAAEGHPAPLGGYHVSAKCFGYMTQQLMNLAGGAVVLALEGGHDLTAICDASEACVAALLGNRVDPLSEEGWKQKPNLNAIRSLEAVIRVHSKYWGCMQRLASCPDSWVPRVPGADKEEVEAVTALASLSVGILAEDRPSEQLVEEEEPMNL

Sequences of proteins named here, by UniProt entry; tags and fusion partners are left off.
UniProt Q14694: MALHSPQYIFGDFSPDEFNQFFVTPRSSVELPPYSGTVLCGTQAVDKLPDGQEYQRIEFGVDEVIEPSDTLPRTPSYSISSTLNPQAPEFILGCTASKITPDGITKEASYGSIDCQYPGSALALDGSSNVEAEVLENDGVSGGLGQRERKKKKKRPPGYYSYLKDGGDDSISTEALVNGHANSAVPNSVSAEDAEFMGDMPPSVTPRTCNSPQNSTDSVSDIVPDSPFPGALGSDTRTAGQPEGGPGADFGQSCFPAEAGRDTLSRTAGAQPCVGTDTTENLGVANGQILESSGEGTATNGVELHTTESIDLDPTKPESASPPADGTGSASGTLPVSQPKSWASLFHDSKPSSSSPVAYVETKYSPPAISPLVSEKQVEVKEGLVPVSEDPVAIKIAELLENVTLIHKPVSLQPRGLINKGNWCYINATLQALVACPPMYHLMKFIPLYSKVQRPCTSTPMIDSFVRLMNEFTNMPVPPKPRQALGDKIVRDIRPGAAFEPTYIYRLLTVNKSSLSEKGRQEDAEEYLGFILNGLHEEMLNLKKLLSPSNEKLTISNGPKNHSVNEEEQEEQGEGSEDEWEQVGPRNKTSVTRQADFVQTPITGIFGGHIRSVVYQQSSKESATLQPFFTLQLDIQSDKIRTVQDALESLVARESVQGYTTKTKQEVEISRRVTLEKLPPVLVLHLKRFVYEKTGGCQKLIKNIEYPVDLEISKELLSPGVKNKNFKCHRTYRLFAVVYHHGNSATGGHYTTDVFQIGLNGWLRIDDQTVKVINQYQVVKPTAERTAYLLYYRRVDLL
UniProt P35222: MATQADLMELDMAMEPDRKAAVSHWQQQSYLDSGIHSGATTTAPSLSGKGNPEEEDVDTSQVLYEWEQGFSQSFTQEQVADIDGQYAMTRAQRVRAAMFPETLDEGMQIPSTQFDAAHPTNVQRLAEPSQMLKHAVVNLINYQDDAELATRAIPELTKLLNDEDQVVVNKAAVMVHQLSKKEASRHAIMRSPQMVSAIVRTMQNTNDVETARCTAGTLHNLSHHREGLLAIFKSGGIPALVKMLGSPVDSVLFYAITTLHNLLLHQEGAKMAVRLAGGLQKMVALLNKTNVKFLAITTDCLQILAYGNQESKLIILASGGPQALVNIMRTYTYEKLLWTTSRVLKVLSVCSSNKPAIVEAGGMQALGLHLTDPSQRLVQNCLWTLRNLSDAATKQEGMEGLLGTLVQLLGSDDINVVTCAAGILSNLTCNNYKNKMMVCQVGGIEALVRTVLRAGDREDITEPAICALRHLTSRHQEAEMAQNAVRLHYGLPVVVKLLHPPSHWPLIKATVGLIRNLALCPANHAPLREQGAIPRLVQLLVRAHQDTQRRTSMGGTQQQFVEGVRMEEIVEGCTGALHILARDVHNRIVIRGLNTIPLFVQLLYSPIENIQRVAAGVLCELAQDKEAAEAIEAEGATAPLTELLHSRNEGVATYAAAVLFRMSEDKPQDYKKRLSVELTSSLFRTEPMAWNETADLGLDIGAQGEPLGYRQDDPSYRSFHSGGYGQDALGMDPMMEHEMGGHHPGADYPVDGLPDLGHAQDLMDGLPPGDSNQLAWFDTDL


Assays:
[1] = molecular target: T1, Histone deacetylase 7 (HDAC7) in NSCLC cells; experiment: co-IP; HDAC7 and β-catenin in NSCLC cells; whole cell lysates in EBC buffer (50 mM Tris-HCl pH 7.5, 120 mM NaCl, 0.5% NP-40), beads washed 4 times with NETN buffer, western blotting; precipitating antibody not given
[2] = molecular target: Ubiquitin-specific peptidase 10 (USP10) in NSCLC cells (human (endogenous in NSCLC cell lines)) (UniProt Q14694); experiment: co-IP; HDAC7 overexpressing cells; lysate incubated with anti-USP10 antibody overnight at 4 °C, Protein G magnetic beads, NETN washes, normal IgG as negative control; blot for HDAC7

Molecule	binding [1]	binding [2]
β-catenin (from UniProt P35222 1-781)	binds	–
Flag-HDAC7 in HDAC7 overexpressing NSCLC cells (protein, UniProt Q8WUI4 1-952) MDLRVGQRPPVEPPPEPTLLALQRPQRLHHHLFLAGLQQQRSVEPMRLSMDTPMPELQVGPQEQELRQLLHKDKSKRSAVASSVVKQKLAEVILKKQQAALERTVHPNSPGIPYRTLEPLETEGATRSMLSSFLPPVPSLPSDPPEHFPLRKTVSEPNLKLRYKPKKSLERRKNPLLRKESAPPSLRRRPAETLGDSSPSSSSTPASGCSSPNDSEHGPNPILGSEALLGQRLRLQETSVAPFALPTVSLLPAITLGLPAPARADSDRRTHPTLGPRGPILGSPHTPLFLPHGLEPEAGGTLPSRLQPILLLDPSGSHAPLLTVPGLGPLPFHFAQSLMTTERLSGSGLHWPLSRTRSEPLPPSATAPPPPGPMQPRLEQLKTHVQVIKRSAKPSEKPRLRQIPSAEDLETDGGGPGQVVDDGLEHRELGHGQPEARGPAPLQQHPQVLLWEQQRLAGRLPRGSTGDTVLLPLAQGGHRPLSRAQSSPAAPASLSAPEPASQARVLSSSETPARTLPFTTGLIYDSVMLKHQCSCGDNSRHPEHAGRIQSIWSRLQERGLRSQCECLRGRKASLEELQSVHSERHVLLYGTNPLSRLKLDNGKLAGLLAQRMFVMLPCGGVGVDTDTIWNELHSSNAARWAAGSVTDLAFKVASRELKNGFAVVRPPGHHADHSTAMGFCFFNSVAIACRQLQQQSKASKILIVDWDVHHGNGTQQTFYQDPSVLYISLHRHDDGNFFPGSGAVDEVGAGSGEGFNVNVAWAGGLDPPMGDPEYLAAFRIVVMPIAREFSPDLVLVSAGFDAAEGHPAPLGGYHVSAKCFGYMTQQLMNLAGGAVVLALEGGHDLTAICDASEACVAALLGNRVDPLSEEGWKQKPNLNAIRSLEAVIRVHSKYWGCMQRLASCPDSWVPRVPGADKEEVEAVTALASLSVGILAEDRPSEQLVEEEEPMNL	–	binds

Reference: PMC8915541
